Results are given in words; binding and its absence hold for the method and conditions named. Binding seen in cells or lysates may run through a third protein. Here binding means that the protein was enriched with, or labelled near, the bait; the list need not be complete.
B1: 14-3-3 eta (endogenous, HEK-293 cells) (protein)
chain: GDREQLLQRARLAEQAERYDDMASAMKAVTELNEPLSNEDRNLLSVAYKNVVGARRSSWRVISSIEQKTMADGNEKKLEKVKAYREKIEKELETVCNDVLSLLDKFLIKNCNDFQYESKVFYLKMKGDYYRYLAEVASGEKKNSVVEASEAAYKEAFEISKEQMQPTHPIRLGLALNFSVFYYEIQNAPEQACLLAKQAFDDAIAELDTLNEDSYKDSTLIMQLLRDNLTLWTSDQQDEEAGEGN
B2: 14-3-3 theta (endogenous, HEK-293 cells) (protein)
chain: MEKTELIQKAKLAEQAERYDDMATCMKAVTEQGAELSNEERNLLSVAYKNVVGGRRSAWRVISSIEQKTDTSDKKLQLIKDYREKVESELRSICTTVLELLDKYLIANATNPESKVFYLKMKGDYFRYLAEVACGDDRKQTIDNSQGAYQEAFDISKKEMQPTHPIRLGLALNFSVFYYEILNNPELACTLAKTAFDEAIAELDTLNEDSYKDSTLIMQLLRDNLTLWTSDSAGEECDAAEGAEN
B3: 14-3-3 gamma (endogenous, HEK-293 cells) (protein)
chain: MVDREQLVQKARLAEQAERYDDMAAAMKNVTELNEPLSNEERNLLSVAYKNVVGARRSSWRVISSIEQKTSADGNEKKIEMVRAYREKIEKELEAVCQDVLSLLDNYLIKNCSETQYESKVFYLKMKGDYYRYLAEVATGEKRATVVESSEKAYSEAHEISKEHMQPTHPIRLGLALNYSVFYYEIQNAPEQACHLAKTAFDDAIAELDTLNEDSYKDSTLIMQLLRDNLTLWTSDQQDDDGGEGNN

Protein sequences, listed by entry. Tags and fused reporters are not part of them. Lines headed by an entry give the natural chain unless they say otherwise; changes in a name come on top.
UniProt Q5S007: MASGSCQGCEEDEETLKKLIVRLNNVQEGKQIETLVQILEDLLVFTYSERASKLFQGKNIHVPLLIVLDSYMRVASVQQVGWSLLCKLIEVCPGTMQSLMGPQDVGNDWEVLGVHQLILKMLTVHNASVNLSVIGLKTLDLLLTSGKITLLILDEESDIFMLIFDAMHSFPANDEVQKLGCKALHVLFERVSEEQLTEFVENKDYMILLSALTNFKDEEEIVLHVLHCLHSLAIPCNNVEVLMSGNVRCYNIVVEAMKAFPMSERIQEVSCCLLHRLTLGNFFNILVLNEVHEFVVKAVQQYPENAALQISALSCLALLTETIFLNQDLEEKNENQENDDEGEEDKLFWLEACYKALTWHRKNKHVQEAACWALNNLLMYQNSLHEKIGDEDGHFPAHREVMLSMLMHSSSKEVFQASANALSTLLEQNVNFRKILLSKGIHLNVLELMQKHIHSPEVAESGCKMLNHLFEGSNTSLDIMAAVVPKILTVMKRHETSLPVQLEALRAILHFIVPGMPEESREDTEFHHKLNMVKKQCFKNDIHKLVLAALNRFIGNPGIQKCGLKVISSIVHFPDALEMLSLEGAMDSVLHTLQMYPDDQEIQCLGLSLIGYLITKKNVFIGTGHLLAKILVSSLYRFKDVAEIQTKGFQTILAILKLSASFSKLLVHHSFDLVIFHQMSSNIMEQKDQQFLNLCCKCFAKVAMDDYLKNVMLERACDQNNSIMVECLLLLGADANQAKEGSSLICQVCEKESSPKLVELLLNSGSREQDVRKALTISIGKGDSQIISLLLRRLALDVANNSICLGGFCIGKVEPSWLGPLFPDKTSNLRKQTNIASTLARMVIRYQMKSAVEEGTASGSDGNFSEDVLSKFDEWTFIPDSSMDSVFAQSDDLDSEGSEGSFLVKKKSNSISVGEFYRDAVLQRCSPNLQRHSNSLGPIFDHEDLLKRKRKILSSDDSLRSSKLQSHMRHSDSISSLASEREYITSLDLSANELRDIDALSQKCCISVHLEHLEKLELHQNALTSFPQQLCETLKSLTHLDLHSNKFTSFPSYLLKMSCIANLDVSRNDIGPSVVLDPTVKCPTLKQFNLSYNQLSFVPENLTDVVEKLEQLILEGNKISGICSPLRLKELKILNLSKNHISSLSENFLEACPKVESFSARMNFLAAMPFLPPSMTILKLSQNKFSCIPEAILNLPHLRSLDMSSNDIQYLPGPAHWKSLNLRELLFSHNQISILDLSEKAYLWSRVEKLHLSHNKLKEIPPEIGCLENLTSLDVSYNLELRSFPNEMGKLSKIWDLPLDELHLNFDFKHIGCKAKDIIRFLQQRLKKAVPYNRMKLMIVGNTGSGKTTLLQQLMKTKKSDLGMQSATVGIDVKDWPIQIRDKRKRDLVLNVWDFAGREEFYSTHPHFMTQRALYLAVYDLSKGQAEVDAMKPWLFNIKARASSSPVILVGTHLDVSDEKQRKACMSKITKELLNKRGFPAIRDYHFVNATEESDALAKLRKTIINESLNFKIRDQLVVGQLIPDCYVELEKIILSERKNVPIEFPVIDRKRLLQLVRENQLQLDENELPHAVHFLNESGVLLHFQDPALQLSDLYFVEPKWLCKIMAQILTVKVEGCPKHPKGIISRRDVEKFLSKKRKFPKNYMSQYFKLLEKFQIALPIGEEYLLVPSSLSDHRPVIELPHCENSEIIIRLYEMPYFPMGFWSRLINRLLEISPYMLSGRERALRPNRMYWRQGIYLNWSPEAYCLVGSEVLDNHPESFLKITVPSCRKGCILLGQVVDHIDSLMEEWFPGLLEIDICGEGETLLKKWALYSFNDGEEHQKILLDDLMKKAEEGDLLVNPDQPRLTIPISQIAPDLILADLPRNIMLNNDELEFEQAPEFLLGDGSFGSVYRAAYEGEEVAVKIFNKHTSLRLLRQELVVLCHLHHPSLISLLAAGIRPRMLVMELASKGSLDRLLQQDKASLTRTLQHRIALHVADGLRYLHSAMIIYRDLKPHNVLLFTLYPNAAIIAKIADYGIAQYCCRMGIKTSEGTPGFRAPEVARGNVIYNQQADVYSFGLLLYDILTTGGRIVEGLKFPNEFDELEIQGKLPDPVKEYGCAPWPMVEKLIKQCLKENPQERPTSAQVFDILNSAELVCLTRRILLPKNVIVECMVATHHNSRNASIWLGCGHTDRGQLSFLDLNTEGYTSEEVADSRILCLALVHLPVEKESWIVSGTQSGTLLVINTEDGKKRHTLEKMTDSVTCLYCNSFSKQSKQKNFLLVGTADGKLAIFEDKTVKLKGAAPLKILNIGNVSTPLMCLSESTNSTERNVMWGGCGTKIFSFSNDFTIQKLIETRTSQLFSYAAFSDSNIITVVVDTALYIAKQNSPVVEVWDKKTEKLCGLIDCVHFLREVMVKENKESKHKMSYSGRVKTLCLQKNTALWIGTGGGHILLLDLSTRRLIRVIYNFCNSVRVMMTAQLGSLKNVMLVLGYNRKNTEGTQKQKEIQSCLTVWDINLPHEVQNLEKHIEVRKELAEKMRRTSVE

Legend:
[1] = target: wild type full-length GFP-LRRK2 (human) (UniProt Q5S007); assay: SILAC mass spectrometry of GFP-binder immunoprecipitates from HEK-293 lysates, against GFP alone
[2] = target: full-length GFP-LRRK2[G2019S] mutant (human) (UniProt Q5S007); assay: as above

Binder	binding [1]	binding [2]
B1	binds	
B2	binds	binds
B3		binds

— patent publication US20110256062A1
